Assay results reported in PubChem BioAssay AID248 (DTP/NCI, 2004).
The list does not hold the whole screen: it is rich in T/C values a quarter to a half above the control, in often repeated tests (any T/C) and in doses without a T/C. Other doses and runs of a compound stand elsewhere. T/C: endpoint of the treated group in % of that of the vehicle group. Some entries give survivors of the animals treated and no T/C: the source files T/C as zero there, which appears to mark a toxic dose or a test without result, not a measured value. Some survivor counts are full or nearly so, which does not show that the dose was tolerated: survival well below the control is almost never listed, so the zero probably covers shortened survival too. Survivors were counted at the toxicity check, usually on the fifth day, unless a day is given; later deaths do not show. Schedules are NCI's codes, read here as Q, the interval in days (D) or hours (H), X, the number of doses. Some entries hold several experiments; the values are given in rising order. Where survival is the endpoint, this PubChem deposit counts one and a half times the control or more as active, and values a quarter to a half above the control carry no call in these data; other NCI protocols may use other cut-offs. Some T/C values are followed by the survivors on the day toxicity was checked, most often the fifth; where none is given, no animal had died by that day.

System: L1210 leukemia ip in BDF1 mice, survival T/C
Experiment: NCI In Vivo Anticancer Drug Screen. Data for tumor model L1210 Leukemia (intraperitoneal) in B6D2F1 (BDF1) mice
Conditions: T/C endpoint: mean survival time, higher T/C = longer survival
[1] = dose: 200.0 mg/kg/injection, schedule: Q01DX001 (ip), vehicle: saline
[2] = dose: 200.0 mg/kg/injection, schedule: Q01DX009 (ip), vehicle: saline with Tween-80
[3] = dose: 400.0 mg/kg/injection, schedule: Q01DX001 (ip), vehicle: saline
[4] = dose: 100.0 mg/kg/injection, schedule: Q01DX001 (ip), vehicle: saline
[5] = dose: 100.0 mg/kg/injection, schedule: Q01DX009 (ip), vehicle: saline with Tween-80
[6] = dose: 400.0 mg/kg/injection, schedule: Q01DX009 (ip), vehicle: saline with Tween-80
[7] = dose: 80.0 mg/kg/injection, schedule: Q01DX001 (ip), vehicle: saline
[8] = dose: 400.0 mg/kg/injection, schedule: Q01DX009 (ip), vehicle: Klucel (hydroxypropylcellulose) (HPC)
[9] = dose: 200.0 mg/kg/injection, schedule: Q04DX003 (ip), vehicle: saline with Tween-80
[10] = dose: 400.0 mg/kg/injection, schedule: Q04DX003 (ip), vehicle: saline with Tween-80
[11] = dose: 400.0 mg/kg/injection, schedule: Q04DX002 (ip), vehicle: saline

## CC1CN=C(c2ccc(NC(=O)c3ccc(C(=O)Nc4ccc(C5=NCC(C)CN5)cc4)cc3)cc2)NC1 (stereo unspecified)
dose: 8.0 mg/kg/injection, schedule: Q01DX015 (ip), vehicle: water
  survivor count: 3 of 6
dose: 16.0 mg/kg/injection, schedule: Q01DX015 (ip), vehicle: water
  survivor count: 0 of 6
dose: 31.0 mg/kg/injection, schedule: Q01DX015 (ip), vehicle: methylcellulose (MC)
  survivor count: 0 of 6
dose: 62.0 mg/kg/injection, schedule: Q01DX015 (ip), vehicle: methylcellulose (MC)
  survivor count: 0 of 6
dose: 125.0 mg/kg/injection, schedule: Q01DX015 (ip), vehicle: methylcellulose (MC)
  survivor count: 0 of 6
dose: 250.0 mg/kg/injection, schedule: Q01DX015 (ip), vehicle: methylcellulose (MC)
  survivor count: 0 of 6

## CCOP(=O)(OCC)OCc1cnc(SC)nc1N
[1]
  survivor count: 0 of 6

## COc1ccc(OC)c(/C=C/c2cccn[n+]2C)c1
[2]
  survivor count: 3 of 3

## CC(C)(C)OC(=O)NC(CO)C(=O)NC(Cc1ccc(OCc2ccccc2)cc1)C(=O)NCC(=O)O (stereo unspecified)
dose: 100.0 mg/kg/injection, schedule: Q01DX005 (ip), vehicle: saline
  survivor count: 2 of 4

## Cc1cccnc1Sc1ccc(C(C)(C)C)cc1
dose: 100.0 mg/kg/injection, schedule: Q04DX002 (ip), vehicle: other
  T/C: 97, 98, 102, 104 % of control
dose: 200.0 mg/kg/injection, schedule: Q04DX002 (ip), vehicle: other
  T/C: 94, 95, 104, 112 % of control
dose: 400.0 mg/kg/injection, schedule: Q04DX002 (ip), vehicle: other
  T/C: 86, 88, 90, 163 % of control [2 of 3 alive]
dose: 800.0 mg/kg/injection, schedule: Q04DX002 (ip), vehicle: other
  survivor count: 2 of 3 and 6 of 6

## Cn1c(=O)c2[nH]c(C3CC4C=CC3C4)nc2n(C)c1=O (stereo unspecified)
[3]
  survivor count: 0 of 4

## CN=NC(C)(C)OC(C)=O
dose: 50.0 mg/kg/injection, schedule: Q01DX009 (ip), vehicle: saline
  survivor count: 1 of 6
[4]
  survivor count: 1 of 6
[1]
  survivor count: 0 of 6
[3]
  survivor count: 0 of 6

## CCCCCCCCCCCCCCCC(=O)N(CCCN)C(C)CCCN(CC)CC (stereo unspecified)
[5]
  survivor count: 0 of 6
[2]
  survivor count: 1 of 6
[6]
  survivor count: 1 of 6

## O=C(Nc1ccc(Br)cc1)c1nc(Br)[nH]c1Br
[5]
  survivor count: 1 of 6
[2]
  survivor count: 0 of 6
[6]
  survivor count: 0 of 6

## CNNC(=O)CCc1ccccc1
dose: 75.0 mg/kg/injection, schedule: Q01DX009 (ip), vehicle: saline
  survivor count: 1 of 6
dose: 150.0 mg/kg/injection, schedule: Q01DX009 (ip), vehicle: saline
  survivor count: 0 of 6
dose: 300.0 mg/kg/injection, schedule: Q01DX009 (ip), vehicle: saline
  survivor count: 0 of 6

## c1ccc(Nc2c3ccccc3nc3ccccc23)cc1
dose: 200.0 mg/kg/injection, schedule: Q04DX003 (ip), vehicle: other
  survivor count: 6 of 6
dose: 400.0 mg/kg/injection, schedule: Q04DX003 (ip), vehicle: other
  survivor count: 3 of 6

## O=S1(=O)CC2(N3CCOCC3)CCCCC21 (stereo unspecified)
dose: 400.0 mg/kg/injection, schedule: Q01DX001 (ip), vehicle: carboxymethylcellulose (CMC)
  survivor count: 1 of 4

## CC1([CH2][Hg][I])CS(=O)(=O)CC(C)([CH2][Hg][I])O1 (stereo unspecified)
[4]
  survivor count: 0 of 4
[1]
  survivor count: 0 of 4
[3]
  survivor count: 0 of 4

## CC1=C(C)CC2C(=O)C=CC(=O)C2C1 (stereo unspecified)
dose: 200.0 mg/kg/injection, schedule: Q01DX009 (ip), vehicle: water
  survivor count: 6 of 6
dose: 400.0 mg/kg/injection, schedule: Q01DX009 (ip), vehicle: water
  survivor count: 1 of 6
dose: 400.0 mg/kg/injection, schedule: Q04DX003 (ip), vehicle: water
  survivor count: 3 of 6

## ClCCN(CCCl)CCNc1ccnc2cc(Cl)ccc12
[7]
  survivor count: 1 of 6

## N#CS/C=C/C(N)=O
dose: 12.5 mg/kg/injection, schedule: Q01DX001 (ip), vehicle: saline
  survivor count: 2 of 6
dose: 25.0 mg/kg/injection, schedule: Q01DX001 (ip), vehicle: saline
  survivor count: 0 of 6
dose: 50.0 mg/kg/injection, schedule: Q01DX001 (ip), vehicle: saline
  survivor count: 1 of 6
[4]
  survivor count: 0 of 6
[1]
  survivor count: 0 of 6
[3]
  survivor count: 0 of 6

## O=C(NCCCl)NC1CC1c1ccccc1 (stereo unspecified)
dose: 300.0 mg/kg/injection, schedule: Q01DX001 (ip), vehicle: other
  survivor count: 3 of 6

## NC1CC2C=CCC(C1)C2 (stereo unspecified)
[3]
  survivor count: 0 of 6

## O=C(NCCCl)Nc1ccc(Cl)c(Cl)c1
[8]
  survivor count: 0 of 6

## CCN(CC)CCOCC(=O)Nc1c(C)cccc1Cl
dose: 400.0 mg/kg/injection, schedule: Q04DX003 (ip), vehicle: saline sonified
  survivor count: 0 of 6

## Fc1ccc(Cl)c2cccnc12
dose: 300.0 mg/kg/injection, schedule: Q01DX001 (ip), vehicle: saline
  survivor count: 0 of 6

## O=[N+]([O-])c1cccc2nc(N/N=C/c3ccccc3O)ccc12
dose: 100.0 mg/kg/injection, schedule: Q01DX009 (ip), vehicle: water
  survivor count: 6 of 6

## COc1ccc(CNCCN2CC2)cc1
dose: 100.0 mg/kg/injection, schedule: Q01DX009 (ip), vehicle: Klucel (hydroxypropylcellulose) (HPC)
  survivor count: 0 of 6
dose: 200.0 mg/kg/injection, schedule: Q01DX009 (ip), vehicle: Klucel (hydroxypropylcellulose) (HPC)
  survivor count: 0 of 6
[8]
  survivor count: 0 of 6

## O=C(O)/C=C/C(=O)Nc1ccccc1-n1cccc1
dose: 400.0 mg/kg/injection, schedule: Q01DX009 (ip), vehicle: saline
  survivor count: 3 of 6

## CCCCCCOC(=O)C[n+]1cccc(C(N)=O)c1
dose: 200.0 mg/kg/injection, schedule: Q04DX003 (ip), vehicle: saline
  survivor count: 6 of 6
dose: 400.0 mg/kg/injection, schedule: Q04DX003 (ip), vehicle: saline
  survivor count: 1 of 6

## O=C(O)c1ccccc1[N+](=O)[O-].[Ag]
dose: 100.0 mg/kg/injection, schedule: Q04DX003 (ip), vehicle: saline with Tween-80
  survivor count: 5 of 6
[9]
  survivor count: 2 of 6
[10]
  survivor count: 0 of 6

## O=P(Oc1ccccc1)(N1CCCC1)N1CCCC1
[11]
  survivor count: 1 of 3

## CCN(CC)CCCNCC(Cc1ccccc1)c1ccccc1 (stereo unspecified)
[11]
  survivor count: 1 of 3

## Cc1cc(N)c(C)c2ccncc12
dose: 10.0 mg/kg/injection, schedule: Q01DX001 (ip), vehicle: saline
  survivor count: 2 of 4
dose: 20.0 mg/kg/injection, schedule: Q01DX001 (ip), vehicle: saline
  survivor count: 1 of 4
dose: 40.0 mg/kg/injection, schedule: Q01DX001 (ip), vehicle: saline
  survivor count: 0 of 4
[7]
  survivor count: 0 of 4
[4]
  survivor count: 0 of 4
[1]
  survivor count: 0 of 4
[3]
  survivor count: 0 of 4

## COc1ccc2[nH]c3c(C)c4cc[n+](C)cc4c(C)c3c2c1
dose: 25.0 mg/kg/injection, schedule: Q04DX003 (ip), vehicle: saline sonified
  T/C: 128 % of control
dose: 40.0 mg/kg/injection, schedule: Q04DX003 (ip), vehicle: saline
  survivor count: 5 of 6

## Cc1cc2cc3ccc(Cl)nn3c2n[n+]1[O-]
dose: 250.0 mg/kg/injection, schedule: Q04DX002 (ip), vehicle: Klucel (hydroxypropylcellulose) (HPC)
  survivor count: 2 of 3

## CC(=O)C(C)(CCC#N)CCC#N
[2]
  survivor count: 2 of 6
[10]
  survivor count: 1 of 6

## COc1ccc(NC(=O)Nc2cccc(Cl)c2C)c(OC)c1
dose: 400.0 mg/kg/injection, schedule: Q04DX002 (ip), vehicle: saline with Tween-80
  survivor count: 3 of 3

## CCOC(=O)C(C(=O)c1ccccc1)c1cc(NS(=O)(=O)c2ccccc2)ccc1O (stereo unspecified)
[9]
  T/C: 133 % of control
[10]
  survivor count: 6 of 6

## CCN(CC)CCC(=O)OC(c1ccccc1)C1(O)CCSC1 (stereo unspecified)
dose: 400.0 mg/kg/injection, schedule: Q04DX003 (ip), vehicle: Klucel (hydroxypropylcellulose) (HPC)
  survivor count: 0 of 6
